# According to patent publication US20040235717A1, “Suppression of androgen receptor transactivation through new pathways to ar and ar coactivators and repressors” (priority 2001, published 2004):
# At least one structure is not confirmed: it was looked up by name or label, or the drawing left a doubt.
# How the values were obtained:
# [1] = system: PC-3(AR)2, PC-3(AR)6, SAR-91 cells; experiment: Androgen/AR-induced apoptosis, TUNEL assay in PC-3(AR)2, PC-3(AR)6 and SAR-91 cells; type: cell-based; conditions: LY294002 20 μM
# Source text: 17. […] (A) PC-3(AR)2 and PC-3(AR)6 expressed AR protein. PC-3 cells were stably transfected with AR, followed by selection with hygromycin B, and confirmed by western blotting using AR antibody NH27, while LNCaP was used as a positive control. (B) Androgen/AR-induced apoptosis in PC-3(AR)2, PC-3(AR)6, and SAR-91 were inhibited by PI(3)K/Akt pathway. […] The data are means±s.d. from three independent experiments.
# 18. […] (A) Akt suppressed androgen/AR-induced p21 promoter activity. […] (B) Androgen/AR-induced PC-3(AR)6 apoptosis and p21 protein expression was blocked by Akt PC-3(AR)6 was transfected with pCDNA3, cAkt, or dAkt, as indicated, for 16 h. […] (C) AR-induced p21 protein expression was enhanced by dAkt in LNCaP cells. […] LNCaP stable transfection with dAkt was confirmed by western blot assay using phospho-Akt (Ser473) antibody. […] TPA was then added for another 24 h and cell apoptosis was determined by TUNEL assay. […] IGF-1 was added for another 30 min, followed by 10 nM TPA treatment for another 24 h. The apoptosis was determined by TUNEL assay. The data are means±s.d. from three independent experiments.
# 281. The TUNEL assay was performed to measure the cell apoptosis according to the standard procedures (Oncogene Research Products). At least 200 cells were scored for each sample and the data are means±s.d. from three independent experiments.
# Akt / AR phosphorylation = experiment: Akt activation and in vivo AR phosphorylation in COS-1 cells; type: cell-based
# Experimental: 14. […] COS-1 cells were pretreated with ethanol or 20 μM LY294002 for 30 min, followed by treatment with 100 ng/ml IGF-1 for 30 min. The total cell lysates were immunoprecipitated by anti-Akt antibody (New England Biolabs). The immunocomplex was subjected to SDS-PAGE, followed by immunoblot with phospho-Akt (S473) antibody or Akt antibody. (B) IGF-1 phosphorylates AR in vivo via Akt. COS-1 cells were cultured in [^32P]-PO4-containing medium. AR immunocomplex was subjected to SDS-PAGE followed by autoradiography. Immunobloting confirmed equivalent amounts of AR in immunocomplex. (C) cAkt, but not dAkt, phosphorylates wtAR, but not mtAR S210A and mtAR S790A in vivo. COS-1 cells were transfected with wtAR, mtAR S210A, or mtAR S790A in combination with PCDNA3 vector, cAkt, or dAkt. After 24 h transfection, cells were labeled with [^32P]-PO4 for 4 h. (D) Suppression of AR transactivation by Akt in a dose-dependent manner. […] Transactivation was measured by CAT activity using MMTV-CAT as a reporter. (E) mtAR S210A is resistant to Akt suppressive effect on AR transactivation. DU145 cells were transfected with plasmids encoding wtAR, mtAR S210A or mtAR S790A in presence of cAkt or dAkt for 24 h. Ligand treatment and AR transactivation were performed as previously described. The data are means±s.d. from three independent experiments.
# 282. […]
# [2] = system: estrogen receptor (ER) transactivation; experiment: ER transactivation, ERE-luc in PC-3 cells transfected with ERα; type: cell-based, human; conditions: 10 nM E2
# Experimental: 26. […] The cells were harvested and assayed for luciferase activity using MMTV-luc as a reporter. […] The cells were harvested for Northern blot analysis. […] The cells were harvested and assayed for the luciferase activity. […] (E) The PC-3 cells were transfected with ERα along with plasmids, as indicated, using ERE-luc as a reporter for 16 h, followed by 10 nM E2 treatment for another 16 h. The cells were harvested for luciferase assay. Data are means±s.d. from three independent experiments.
# 312. […] The cells were lysed and the luciferase activity was detected by the dual luciferase assay according to standard procedures.
smiles,measurement,setting,value
"O=c1cc(N2CCOCC2)oc2c(-c3ccccc3)cccc12 [LY294002, reference compound]",Effect on IGF-1 repression of androgen-induced apoptosis,[1],reversed
same,Effect on IGF-1-induced AR phosphorylation,Akt / AR phosphorylation,blocked
same,Effect on activation of Akt by IGF-1,Akt / AR phosphorylation; 20 μM LY294002 30 min pretreatment,blocked
same,Effect on ER transactivation,[2],suppressed ER transactivation
